From patent publication US5770565A, “Peptides for reducing or inhibiting bone resorption” (priority 1994, dated 1998)
Not every detail of the peptide structures is certain; ends, links or a residue may be inferred. Some entries repeat one wording, which the source may state once for all of them. Where a SMILES comes first, the peptide text is derived from it. Bridges are numbered along the chain shown (N, C = ends). [ ]: non-standard residue; d: D form. Tic = O=C(O)[C@@H]1Cc2ccccc2CN1

Key:
Swiss-Webster mice = assay: PTH-induced hypercalcemia assay; assay type: in vivo; conditions: peptide infused 4 hr at various doses, 0.2 mg PTH/kg i.v., FIG. 9
Text: Parathyroid hormone (PTH) activates osteoclasts, which are involved in bone resorption. Associated with the increased osteoclast activity is an increase in serum calcium. The PTH-induced hypercalcemia assay measures the level of serum calcium, which is an indication of bone resorption in a subject (Fischer et al., Endocrinology 132:1411-1413 (1993), which is incorporated herein by reference).
Swiss-Webster mice, which had been parathyroidectomized two weeks prior to beginning the assay, were obtained from Taconic Lab Animals and Services (Germantown N.Y.). Femoral vein catheters (PE-50 fused with PE10 polyethylene tubing; Becton Dickinson; Parsippany, N.J.) were installed in the mice, flushed and locked with heparinized saline (1:10), sutured to adjacent muscle and internalized within the inguinal space of the incision before closing the incision with wound clips. […]
The experiment was initiated by feeding the mice a calcium-deficient diet overnight, then injecting the mice the following morning with a bolus of 0.2 mg PTH/kg (hPTH 1-34; Bachem; Torrance Calif.), intravenously. […] Various doses of a peptide or vehicle were infused into an animal for 4 hr, then ionized serum calcium again was measured. […] Serum calcium measurements were expressed as the difference between the value 30 min before the PTH pulse and 4 hr after peptide infusion was started. […]

chick osteoclasts = assay: chick osteoclast / total cell detachment assay; assay type: cell-based; conditions: FIG. 5
Procedure: Peptides were evaluated for their ability to detach osteoclasts from a matrix consisting of serum-coated microtiter plates. In prescreening assays, 5 μM of the various RGD peptides was used to identify RGD peptides that released at least 60% of the osteoclasts from the matrix.
Osteoclasts were isolated from embryonic chicks using a modification of the methods of Boyde et al., Br. Dent. J. 156:216 (1984) and Chambers et al., Endocrinology 116:234 (1985), each of which is incorporated herein by reference. […]
The cells were incubated for 90 min at 37° C. in an atmosphere containing 10% CO2. […] Cell layers were stained for 5 min using 0.1% crystal violet and multinucleated osteoclasts were counted by light microscopy. […]
RGD peptides that are selective for releasing osteoclasts, but not the other cell types, from the matrix were identified by extracting the crystal violet stain from fixed cells and comparing the amount of staining in a control well (no peptide) with the amount of staining following incubation of the cells with an RGD peptide. Crystal violet was extracted using 20% acetic acid and the optical density of the resulting solution was measured in 96 well microtiter plates by spectrophotometry at 562 nm. […]

[1] = system: αV β3 integrin, osteoclasts; assay: series of assays of Example II for potency and selectivity (summary, FIG. 2)
Text: Peptides of the RGDNTic (SEQ ID NO: 56) pharmacophore group are characterized, in general, as having increased potency, whereas the peptides of the pharmacophore RGDDV (SEQ ID NO: 1) group generally have higher receptor selectivity. […] As used herein, the term "potency" or "potent" means that a peptide of the invention is active at a relatively low concentration in the assays described in Examples II and III. A potent peptide of the invention can be identified, for example, using the assays described in Examples II and III.
Selectivity can be due, for example, to the ability of a peptide of the invention to bind to αV β3 with greater affinity than it binds to other integrins. Thus, in addition to having selectivity, for example, for osteoclast binding to a matrix, a peptide of the invention also can display receptor selectivity and, therefore, more specifically alter receptor-mediated binding to a matrix. As used herein, the term "receptor selectivity" means that a peptide of the invention can bind to one receptor with greater affinity than it can bind to another receptor.

CC(=O)N[C@H]1CSSC[C@@H](C(N)=O)NC(=O)[C@@H]2Cc3ccccc3CN2C(=O)[C@H](CC(N)=O)NC(=O)[C@H](CC(=O)O)NC(=O)CNC(=O)[C@H](CCCNC(=N)N)NC(=O)[C@H](C)NC(=O)[C@H](C)NC1=O [compound 20] (Ac-CAARGDN[Tic]C-NH2; disulfide 1-9)
effect on PTH-induced rise in serum ionized calcium (Swiss-Webster mice): decreased the PTH-induced rise in serum ionized calcium in a dose responsive manner | selective detachment of osteoclasts as compared to other cell types (chick osteoclasts): selective detachment of osteoclasts | potency (summary classification) [1]: particularly potent
